# PubChem BioAssay AID1259424, University of Nebraska Medical Center | 2018
# Screen: 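Find knockdowns that reproduce the expression shifts seen after KSR1 loss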 (primary screen)
# Cells: human HCT116 colon cancer cells
# Reagents: siRNA pool against human genes, 50 nM
# Measured: 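Log2 levels of six mRNAs (branched-DNA multiplex), adjusted by two reference genes and the non-targeting median, then scored against the average KSR1 knockdown pattern as Pearson r and euclidean distance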
# Direction: mean correlation with KSR1 profile and KSR1 correlation: higher = expression change more like KSR1 knockdown; mean distance from KSR1 profile: higher = expression change less like KSR1 knockdown
# Here is a random part of about 14,000 deposited reagents. 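Higher correlation or smaller distance means closer resemblance to KSR1 loss; control wells, including KSR1 knockdowns, recur on many plates.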 Not all columns of the deposit are shown. Not given: the time to read-out.
gene symbol,PubChem SID,mean correlation with KSR1 profile,mean distance from KSR1 profile,"KSR1 correlation, replicate 1","KSR1 correlation, replicate 2"
RNFT1 (GeneID 51136),SID363999893,-0.353,2.02,-0.403,-0.127
SLC22A4 (GeneID 6583),SID363994207,0.546,0.805,0.373,0.54
THOP1 (GeneID 7064),SID363994370,-0.188,4.43,-0.0312,-0.188
HAGH (GeneID 3029),SID363996242,-0.541,2.49,-0.35,-0.754
SRPK3 (GeneID 26576),SID363998794,0.153,1.56,0.478,0.0741
ANKS1B (GeneID 56899),SID364001501,-0.859,2.89,-0.842,-0.713
NXF2 (GeneID 56001),SID364000543,-0.464,3.33,-0.387,-0.324
CHD8 (GeneID 57680),SID364005415,-0.875,2.85,-0.882,-0.716
SMAD2 (GeneID 4087),SID363996770,0.734,1.76,0.314,0.587
ASIC5 (GeneID 51802),SID364000300,-0.573,1.55,-0.189,-0.858
ACTC1 (GeneID 70),SID363996086,-0.275,2.39,-0.159,-0.402
APOC2 (GeneID 344),SID363991806,-0.0672,2.62,0.216,-0.109
SCAF8 (GeneID 22828),SID363999178,0.386,1.7,0.401,0.557
EPB41 (GeneID 2035),SID363995419,0.709,0.698,0.892,0.577
HES7 (GeneID 84667),SID364004071,0.473,1.73,0.61,0.281
KCNJ6 (GeneID 3763),SID363993440,0.507,1.8,0.471,0.523
H2AC20 (GeneID 8338),SID363994607,0.575,1.46,0.705,0.327
BAZ1A (GeneID 11177),SID363998525,-0.174,2.43,-0.0976,-0.289
DYDC2 (GeneID 84332),SID364003952,-0.0455,2.63,-0.322,0.0904
IFT27 (GeneID 11020),SID363997624,0.0253,2.19,0,0.0606
STC1 (GeneID 6781),SID363994294,-0.558,2.65,-0.529,-0.651
WDHD1 (GeneID 11169),SID363997815,-0.315,1.98,0.127,-0.347
SI (GeneID 6476),SID363992338,-0.237,1.89,-0.6,-0.0525
NME1 (GeneID 4830),SID363991602,0.146,2.53,0.251,0.375
GADD45A (GeneID 1647),SID363993137,0.107,1.58,0.227,0.0568
ITGA2B (GeneID 3674),SID363991750,-0.136,2.23,-0.127,-0.0519
ARHGEF15 (GeneID 22899),SID364004848,0.427,1.11,0.245,0.431
HIBCH (GeneID 26275),SID363998786,-0.364,2.03,-0.665,-0.501
FKBP8 (GeneID 23770),SID363998119,0.164,2.2,0.138,0.0241
SERPINB7 (GeneID 8710),SID363994848,-0.394,2.15,-0.378,-0.312
LIM2 (GeneID 3982),SID364003396,-0.227,3.01,-0.297,-0.499
CBLC (GeneID 23624),SID363998064,-0.358,2.61,-0.491,-0.453
GTF2H3 (GeneID 2967),SID363992774,-0.177,1.98,-0.16,-0.304
ATP8B2 (GeneID 57198),SID364001706,-0.103,3.71,-0.374,-0.129
XPR1 (GeneID 9213),SID363995695,0.332,2.08,0.525,0.649
CHD1 (GeneID 1105),SID363992555,0.303,1.38,0.259,0.49
TMEM79 (GeneID 84283),SID364003909,0.344,2,-0.23,0.411
HMGN5 (GeneID 79366),SID364003417,0.544,2.55,0.588,0.607
GP1BA (GeneID 2811),SID363991509,0.133,3.45,0.139,0.146
AMPH (GeneID 273),SID363992860,0.0154,2.64,0.213,-0.109
RRP12 (GeneID 23223),SID363999348,-0.248,2.62,-0.116,-0.225
XPO7 (GeneID 23039),SID363999259,0.312,2.44,0.421,0.344
ARFGAP1 (GeneID 55738),SID364000879,0.536,1.28,0.438,0.377
IRAK1 (GeneID 3654),SID363992825,0.277,1.88,0.493,0.312
PLEKHA1 (GeneID 59338),SID364002147,0.797,0.84,0.775,0.88
PPP1R3B (GeneID 79660),SID364002909,-0.127,3.01,-0.0785,-0.238
CLEC4A (GeneID 50856),SID363999933,-0.318,2.33,-0.17,-0.409
SLC35F2 (GeneID 54733),SID364000332,0.748,3.79,0.722,0.921
SHCBP1 (GeneID 79801),SID364003023,-0.101,2.87,-0.0335,0.226
ATRNL1 (GeneID 26033),SID364005011,0.0942,1.56,0.45,0.00115
